Results published in PubChem BioAssay AID587 (National Center for Advancing Translational Sciences (NCATS), 2007).
Hit rate of the full screen: of about 59,000 compounds, about 35 (0.06%) were called active. The shares of active, inactive and inconclusive entries below differ from those in the screen. Rule as the data show it: active = max dye-equivalent concentration above about 10 nM; inconclusive = between about 1.1 nM and that limit; inactive = weaker than that.

assay: qHTS Assay for Spectroscopic Profiling in Texas Red Spectral Region; details: Compound fluorescence, Texas Red channel, 547/618 nm; hits give high values
In short: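 Fluorescence at ex 547/em 618 nm, normalized against an on-plate Texas Red standard series to give dye-equivalent concentration per compound concentration. Buffer 100 mM Tris, pH 8.0; 15 min RT incubation before CCD imaging.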

SMILES	max dye-equivalent concentration
Cc1nn(C/C(C#N)=N\O)c(C)[n+]1N	inconclusive: 1.2 nM
N#Cc1ccccc1-c1ccc2ncnc(NCc3cccnc3)c2c1	inactive
Cc1cc(C(=O)COC(=O)CCc2nc3ccccc3s2)c(C)n1C	inconclusive: 1.3 nM
O=c1nccc(NCc2ccco2)[nH]1	inconclusive: 1.3 nM
CCN(CC(=O)NC1CCS(=O)(=O)C1)C(=O)COc1ccccc1-c1ccccc1 (stereo not given)	inconclusive: 1.6 nM
Cn1c(CCN2CCCCC2)nc2cc(NS(=O)(=O)c3ccccc3)ccc21	inconclusive: 1.3 nM
O=C1c2ccccc2-c2onc3ccc(NCCCn4ccnc4)c1c23	active: 140 nM
COC(=O)C1CN(S(=O)(=O)c2ccc(C)cc2)CCN1S(=O)(=O)c1ccc(C)cc1 (stereo not given)	inconclusive: 1.3 nM
CC(C)(C)[C@@]1(O)CCN2C[C@@H]3c4ccccc4CCc4cccc(c43)[C@@H]2C1	inactive
CC(=O)Nc1cc(CN2CCCCC2)c(O)c2ncccc12	inactive
O=C(c1cccc(F)c1)N1CCN(S(=O)(=O)c2ccc(C(F)(F)F)cc2)CC1	inconclusive: 1.6 nM
COc1cc(C(=O)NCc2ccco2)cc(OC)c1OC	inconclusive: 1.5 nM
Cc1cc2c(c(=O)o1)C1(C(=O)N(CC(=O)O)c3ccccc31)C(C#N)=C(N)O2 (stereo not given)	inactive
O=C(Nc1ccc(-c2noc(CCc3ccccc3)n2)cc1)c1cccnc1	inconclusive: 1.3 nM
CC1(C)C(=O)NCCN1C(=O)CSc1nccc(-c2ccc(Br)cc2)n1	inconclusive: 3.7 nM
COc1ccc2cc(C3(C)NC(=O)NC3=O)ccc2c1 (stereo not given)	inconclusive: 2.3 nM
COc1ccc(CCn2c(-c3ccco3)nc3oc4ccccc4c(=O)c3c2=O)cc1	inconclusive: 2.1 nM
Nc1c(S(=O)(=O)c2cccs2)c2nc3ccccc3nc2n1CC1CCCO1 (stereo not given)	inconclusive: 1.2 nM
COC(=O)C1C(O)=C(C=NC2CCCCC2)C(=O)CC1(C)C (stereo not given)	inconclusive: 1.3 nM
O=C(N[C@@H](CO)[C@@H](O)c1ccc([N+](=O)[O-])cc1)C(Cl)Cl	inactive
COc1ccc(-c2oc3ncnc(NCCCN4CCOCC4)c3c2-c2ccc(OC)cc2)cc1	inconclusive: 1.3 nM
COC(=O)N1CCC2(CC1)CN(c1ccncc1)C2	inactive
CCOC(=O)c1cc(CNC(=O)c2c(C)oc3c2CCCC3)c(C)o1	inconclusive: 1.2 nM
CC(C)OC(=O)C(CC(=O)O)NCc1ccccc1 (stereo not given)	inconclusive: 1.3 nM
Cc1ccc(N2CCN(CCc3nc4cc(NC(=O)c5ccco5)ccc4n3C)CC2)cc1	inconclusive: 1.3 nM
Cc1cc(NC2C3CC4CC(C3)CC2C4)n2nnnc2n1 (stereo not given)	inconclusive: 1.8 nM
Cc1ccccc1-n1c(-c2ccncc2)n[nH]c1=S	inconclusive: 1.7 nM
N#Cc1nc(COc2ccccc2)oc1N1CCC(Cc2ccccc2)CC1	inconclusive: 1.3 nM

4 of these compounds in a different format:
O=c1nccc(NCc2ccco2)[nH]1
  max dye-equivalent concentration: inconclusive: 1.3 nM
O=C(c1cccc(F)c1)N1CCN(S(=O)(=O)c2ccc(C(F)(F)F)cc2)CC1
  max dye-equivalent concentration: inconclusive: 1.6 nM
COc1ccc(CCn2c(-c3ccco3)nc3oc4ccccc4c(=O)c3c2=O)cc1
  max dye-equivalent concentration: inconclusive: 2.1 nM
COC(=O)N1CCC2(CC1)CN(c1ccncc1)C2
  max dye-equivalent concentration: inactive

Additional compounds follow:

SMILES	max dye-equivalent concentration
COC(=O)C1=C(C)OC(N)=C(C#N)C1c1cc(OC)c(OCC(N)=O)cc1Cl (stereo not given)	inconclusive: 1.9 nM
CCOC(=O)CCc1c(C)c2ccc(OCC(=O)OC(C)C)cc2oc1=O	inconclusive: 1.1 nM
O=C(c1ccco1)N1CCN(c2c(-c3ccccc3)c3cc(Cl)ccc3[nH]c2=O)CC1	inconclusive: 1.8 nM
COc1ccc(N(CC(=O)NC2CCCCCC2)S(=O)(=O)c2c(C)nn(C)c2C)cc1	inconclusive: 1.5 nM
O=C(NCC(c1cccnc1)N1CCN(c2ccccc2)CC1)OCc1ccccc1 (stereo not given)	inconclusive: 1.2 nM
Cc1cc(C)c(S(=O)(=O)N2CCCCC2)c(C)c1-n1ncnn1	inconclusive: 2 nM
O=C(COc1cccc2cccnc12)Nc1nccs1	inconclusive: 1.2 nM
CCSc1ccccc1C(=O)Nc1cccnc1	inconclusive: 1.5 nM
Cc1cc(N2CCN(c3cccc(C(F)(F)F)c3)CC2)n2ncnc2n1	inconclusive: 1.2 nM
Cc1cccc(C(=O)O)c1C[C@H]1NCC[C@H]2c3ccccc3N[C@@H]12	inactive
COc1ccc(NC(=O)C2CCN(c3cc(C)nc(-c4ccccc4)n3)CC2)cc1	inconclusive: 1.2 nM
CCN(CC)C(=O)COc1ccc(-c2nnc(N3CCCCC3)c3ccccc23)cc1	inconclusive: 1.4 nM
CC(C)Sc1nc2c(c(=O)[nH]c(=O)n2C)n1Cc1ccc(Cl)cc1	inconclusive: 1.4 nM
CCCn1c(=NC(=O)c2ccco2)c(C(=O)OCC)cc2c(=O)n3ccccc3nc21	inactive
Cc1cc(C(=O)CSc2n[nH]c(N)n2)c(C)n1-c1cccc(F)c1	inconclusive: 1.4 nM
O=C1c2ccccc2C(=O)c2c(NC3CCCCC3)ccc(Nc3ccc(S(=O)(=O)O)cc3)c21	active: 61 nM
CCOc1cc(C2C(C(=O)OC(C)C)=C(C)N=C3SCCC(=O)N32)ccc1OC(C)=O (stereo not given)	inconclusive: 1.3 nM
CCN(CC)CCN1C(=O)c2oc3ccccc3c(=O)c2C1c1ccccc1 (stereo not given)	inconclusive: 1.6 nM
Cc1cccc(CC2CC(=O)N(C3CCCCC3)C2=O)c1 (stereo not given)	inconclusive: 1.2 nM
COCCCNC(=O)c1ccc(N(C)S(C)(=O)=O)cc1	inconclusive: 1.7 nM
O=C(CCCc1nc2ccccc2s1)Nc1nccs1	inconclusive: 2.3 nM
CCCCn1c(CN2CCN(c3cccc(Cl)c3)CC2)nc2c1c(=O)[nH]c(=O)n2C	inconclusive: 1.3 nM
CCOc1ccccc1NC(=O)N1CCCC1C(=O)Nc1ccc(-n2cnnn2)c(C)c1 (stereo not given)	inconclusive: 1.8 nM
CCOC(=O)c1cccc(NC(=O)CSc2nnc(-c3cccnc3)n2C)c1	inconclusive: 1.1 nM
O=C(O)c1cc2cc(Cl)ccc2oc1=O	inconclusive: 1.3 nM
COc1ccc(C2C=C(c3ccc(C)cc3)Nc3ncnn32)cc1 (stereo not given)	inactive
CN1C(C(=O)Nc2ccccn2)=C(O)c2ccccc2S1(=O)=O	inactive
